The test has as its target DCP1‐TurboID‐6xHis‐3xFLAG (Arabidopsis thaliana). Nature of the test: affinity purification with mass spectrometry + proximity labelling; APEAL as a whole (AP and PDL steps in tandem, step not told for the statement); DCP1‐TurboID‐HF bait in Arabidopsis rosette leaves, non-stress or heat stress.

Three molecules from article PMC10152145 can be followed below.

No constants are given. Whether binding was seen depends on the method and setting. In cells and extracts the contact can be indirect. These calls come from enrichment with a bait or labelling near it, and not all partners need be listed. No binding means not detected with the bait.

B1: Ras‐related protein Rab‐A5c (protein, UniProt P28187 1-214)
chain: MSDDDERGEEYLFKIVIIGDSAVGKSNLLTRYARNEFNPNSKATIGVEFQTQSMLIDGKEVKAQIWDTAGQERFRAVTSAYYRGAVGALVVYDITRSSTFENVGRWLDELNTHSDTTVAKMLIGNKCDLESIRAVSVEEGKSLAESEGLFFMETSALDSTNVKTAFEMVIREIYSNISRKQLNSDSYKEELTVNRVSLVKNENEGTKTFSCCSR
For B1, the binding entry is “no binding”.

B2: PINFORMED7 (protein, UniProt Q940Y5 1-619)
chain: MITWHDLYTVLTAVIPLYVAMILAYGSVRWWKIFSPDQCSGINRFVAIFAVPLLSFHFISSNNPYAMNLRFIAADTLQKLIMLTLLIIWANFTRSGSLEWSITIFSLSTLPNTLVMGIPLLIAMYGEYSGSLMVQIVVLQCIIWYTLLLFLFEYRGAKILIMEQFPETGASIVSFKVESDVVSLDGHDFLETDAQIGDDGKLHVTVRKSNASRRSFYGGGGTNMTPRPSNLTGAEIYSLNTTPRGSNFNHSDFYSMMGFPGGRLSNFGPADMYSVQSSRGPTPRPSNFEESCAMASSPRFGYYPGGAPGSYPAPNPEFSTGNKTGSKAPKENHHHVGKSNSNDAKELHMFVWGSNGSPVSDRAGLQVDNGANEQVGKSDQGGAKEIRMLISDHTQNGENKAGPMNGDYGGEEESERVKEVPNGLHKLRCNSTAELNPKEAIETGETVPVKHMPPASVMTRLILIMVWRKLIRNPNTYSSLIGLIWALVAFRWDVAMPKIIQQSISILSDAGLGMAMFSLGLFMALQPKLIACGNSTATFAMAVRFFTGPAVMAVAAMAIGLRGDLLRVAIVQAALPQGIVPFVFAKEYNVHPAILSTGVIFGMLIALPITLVYYILLGL
Take B2: the binding result was “no binding”.

B3: RNA‐BINDING PROTEIN 47B (protein, UniProt Q0WW84 1-435)
chain: MQTTNGSDSTLATSGATPPNQQTPPPPQQWQQQQQQQQQWMAAMQYPPAAAMMMMQQQQMLMYPHQYVPYNQGPYQQHHPQLHQYGSYQQHQHQQHKAIDRGSGDDVKTLWVGDLLHWMDETYLHSCFSHTGEVSSVKVIRNKLTSQSEGYGFVEFLSRAAAEEVLQNYSGSVMPNSDQPFRINWASFSTGEKRAVENGPDLSVFVGDLSPDVTDVLLHETFSDRYPSVKSAKVVIDSNTGRSKGYGFVRFGDENERSRALTEMNGAYCSNRQMRVGIATPKRAIANQQQHSSQAVILAGGHGSNGSMGYGSQSDGESTNATIFVGGIDPDVIDEDLRQPFSQFGEVVSVKIPVGKGCGFVQFADRKSAEDAIESLNGTVIGKNTVRLSWGRSPNKQWRGDSGQQWNGGYSRGHGYNNGGGYANHHDSNNYHGEN
B3: the binding result is “no binding”.
